Results taken from paper PMC9554868.
Results are given in words; binding and its absence hold for the method and conditions named. Binding seen in cells or lysates may run through a third protein. Binding calls can cover weak binding; strength is not graded here.

Amino acid sequences for entries named in this document (tags omitted). A change or cut given only in a name is not applied to a line headed by its entry.
UniProt Q9BY78: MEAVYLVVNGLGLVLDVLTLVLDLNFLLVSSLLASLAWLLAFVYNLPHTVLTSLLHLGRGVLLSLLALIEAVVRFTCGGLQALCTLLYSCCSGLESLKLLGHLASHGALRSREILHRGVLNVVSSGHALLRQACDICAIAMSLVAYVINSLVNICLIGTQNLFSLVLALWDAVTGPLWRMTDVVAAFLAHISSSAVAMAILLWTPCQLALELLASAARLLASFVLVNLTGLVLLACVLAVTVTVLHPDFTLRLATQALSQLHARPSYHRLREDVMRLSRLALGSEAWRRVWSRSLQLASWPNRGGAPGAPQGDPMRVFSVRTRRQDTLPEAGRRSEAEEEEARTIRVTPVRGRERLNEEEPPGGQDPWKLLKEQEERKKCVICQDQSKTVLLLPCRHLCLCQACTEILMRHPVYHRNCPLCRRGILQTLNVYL
UniProt Q05320: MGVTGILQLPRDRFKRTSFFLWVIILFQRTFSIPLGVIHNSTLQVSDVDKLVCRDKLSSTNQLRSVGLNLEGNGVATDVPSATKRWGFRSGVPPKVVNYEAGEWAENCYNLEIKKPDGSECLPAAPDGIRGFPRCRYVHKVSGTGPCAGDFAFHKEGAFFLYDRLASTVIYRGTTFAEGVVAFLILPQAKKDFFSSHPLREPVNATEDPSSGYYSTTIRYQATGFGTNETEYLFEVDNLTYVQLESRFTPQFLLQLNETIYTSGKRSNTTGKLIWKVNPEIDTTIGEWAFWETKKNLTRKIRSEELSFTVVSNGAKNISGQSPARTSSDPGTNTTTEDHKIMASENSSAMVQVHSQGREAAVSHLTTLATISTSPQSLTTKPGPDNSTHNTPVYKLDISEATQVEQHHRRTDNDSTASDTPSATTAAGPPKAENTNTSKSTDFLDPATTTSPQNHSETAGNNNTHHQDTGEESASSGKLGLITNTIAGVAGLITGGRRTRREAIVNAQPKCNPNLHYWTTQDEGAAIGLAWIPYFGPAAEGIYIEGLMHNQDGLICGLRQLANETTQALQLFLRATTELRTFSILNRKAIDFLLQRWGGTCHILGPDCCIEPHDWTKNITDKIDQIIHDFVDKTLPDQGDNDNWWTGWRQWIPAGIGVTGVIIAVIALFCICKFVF

Molecular target: RING finger protein 26 (RNF26), wild type, Myc-FLAG-tagged (UniProt Q9BY78)
Test: co-IP

**Q.** Which binding does the source give for “EBOV-GP1,2 with a HiBiT tag (from UniProt Q05320)” here?
**A.** binds
